In PubChem BioAssay AID493014 (National Center for Advancing Translational Sciences (NCATS), 2011):
This is one part of the list. Further columns of the screen follow, without active or inactive calls. Compounds called inactive in the main read-out are mostly missing here. The note in brackets gives the kind of curve behind each potency; many fits are weak.

Assay: qHTS Assay to Find Inhibitors of Chronic Active B-Cell Receptor Signaling
Settings: ABC-DLBCL IkBa-CBG/CBR reporter, luminescence ratio (green luciferase fused to IkBa over red control in TMD8 lymphoma cells), 4 h
In short: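 Doxycycline induced both beetle luciferases in TMD8 lymphoma cells; IKK-driven degradation limits the IkappaBalpha-fused green signal, while red luminescence normalises for cell number and nonspecific effects. Compounds tested up to 46 uM, 4 hrs.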

[1] = measured here: CBR red luminescence, cell number
[2] = measured here: IkBa-CBG green luminescence

Compound | AC50 [1] | AC50 [2]
Cc1cc(OCC(=O)N(Cc2ccco2)C2CCS(=O)(=O)C2)ccc1Cl (stereo not given) | 8.91 µM [falling, partial curve] | –
Cc1cc(C)n(-c2nc3ccccc3nc2N2CCN(C(=O)c3ccccc3)CC2)n1 | 23.1 µM [rising, partial curve, poor fit] | –
Cc1cc(C(=O)N/N=C2/CC(C)CC(C)(C)C2)c(C)o1 (stereo not given) | 7.08 µM [falling, partial curve] | –
COc1cc(C(C)=O)ccc1Oc1cc(NN2CCCCC2)c([N+](=O)[O-])cc1[N+](=O)[O-] | 2.51 µM [rising, full curve, poor fit] | –
COc1cc2sc3cc(NCCCN4CCOCC4)ccc3c(=O)c2cc1OC | 6.51 µM [falling, single point] | –
CCCN(CCC)CCNC(=O)c1cc2c(-c3ccccc3F)nn(C)c2s1 | 6.31 µM [falling, full curve] | –
Nc1c(C(=O)c2ccc(Br)cc2)oc2ccccc12 | 1.64 µM [rising, partial curve] | –
CCC(C)NC(=O)CC(NS(=O)(=O)c1ccc(C)cc1)c1ccc(OC)cc1 (stereo not given) | 0.00411 µM [rising, full curve, poor fit] | –
CCOc1ccc(C=NNc2ccc(S(=O)(=O)Nc3ccccc3C(=O)O)cc2[N+](=O)[O-])cc1 | 29.1 µM [rising, single point] | –
C/C(=N\Nc1ncc(Cl)cc1Cl)c1ccc2c(c1)OCO2 | 0.2 µM [rising, full curve, poor fit] | –
COc1ccc(N/C=C2/Sc3ccccc3NC2=O)cc1 | 12.6 µM [falling, partial curve, poor fit] | –
COc1cccc(C(=O)Nc2nnc(-c3cccs3)o2)c1 | 12.6 µM [falling, partial curve] | 12.6 µM [falling, single point]
COc1cc2c(cc1NC(=O)COC(=O)CNC(=O)c1ccccc1)oc1ccccc12 | 0.447 µM [rising, full curve, poor fit] | –
COc1ccc2o/c(=N/NC(=S)Nc3ccccc3)c(C(N)=O)cc2c1 | 0.58 µM [falling, full curve, poor fit] | –
O=C(NCCN1CCOCC1)c1ccc(/C=C2\Sc3ccccc3N(Cc3ccc(F)cc3)C2=O)cc1 | 35.5 µM [falling, single point] | –
COc1cc(N=Nc2ccccc2C(=O)O)ccc1O | 10 µM [rising, partial curve, poor fit] | –
FC(F)(F)c1cc(CCN2C(=S)NC[C@@H]2Cc2ccccc2)cc(C(F)(F)F)c1 | – | 35.5 µM [rising, partial curve, poor fit]
Cc1ccc(S(=O)(=O)NNC(=O)Nc2ccc(Cl)c(Cl)c2)cc1 | 12.6 µM [rising, partial curve, poor fit] | –
CC1(NC(=O)COc2ccccc2-c2ccccc2)CCS(=O)(=O)C1 (stereo not given) | 0.731 µM [falling, partial curve, poor fit] | –
CCOc1ccc2nc(N3C(=O)C(O)=C(C(=O)c4ccco4)C3c3ccco3)sc2c1 (stereo not given) | 0.58 µM [rising, full curve, poor fit] | –
COc1ccccc1COCC(O)CNCCc1ccc(C(F)(F)F)cc1 (stereo not given) | 35.5 µM [falling, single point] | –
O=C(/C=C/c1ccco1)Oc1ccc(C(=S)N2CCOCC2)cc1 | 22.4 µM [rising, partial curve, poor fit] | –

Compound | AC50 [1] | AC50 [2]
CCc1ccc(NC(=O)c2cc(CC(C)C)on2)cc1 | 9.2 µM [rising, partial curve, poor fit] | –
CCOc1ccc(OCc2cccc(C(=O)N3CCOCC3)c2)cc1 | 29.1 µM [falling, single point] | –
CC(=O)Nc1ccc(OCCOc2ccc(/C=C3\C(=N)N4N=C(C)SC4=NC3=O)cc2)cc1 | 35.5 µM [rising, single point] | –
CC(C)COc1nc2c(c(=O)n(C)c(=O)n2C)n1C | 1.26 µM [falling, full curve, poor fit] | –
COc1ccc(CCNC(=O)C(=O)c2cn(CC(=O)N3CCOCC3)c3ccccc23)cc1 | 2.24 µM [falling, full curve] | –
Cc1ccccc1NC(=O)c1cccc(S(=O)(=O)N2CCCCC2)c1 | 5.62 µM [rising, single point] | –
CC1CC(OCC(O)CN2CCOCC2)CC(C)(C)C1 (stereo not given) | 14.6 µM [rising, partial curve, poor fit] | –
CCOC(=O)c1c(-c2ccc(C)s2)csc1N | 15.8 µM [falling, single point] | –
S=C(c1ccc2c(c1)OCO2)N1CCCCC1 | 4.11 µM [rising, full curve, poor fit] | –
COc1ccc(C(C(O)C(=O)c2c[nH]c3ccccc23)N2CCN(c3ccccc3)CC2)cc1 (stereo not given) | 18.4 µM [falling, single point] | –
CCn1c(=O)c([N+](=O)[O-])c(NCc2ccc3c(c2)OCO3)c2ccccc21 | 12.6 µM [falling, partial curve, poor fit] | –
COc1ccc(/[N+]([O-])=C/c2ccoc2)cc1 | 6.51 µM [rising, single point] | –
Cc1ccc(S(=O)(=O)Nc2cccc(-c3ccc(N4CCCCCC4)nn3)c2)cc1C | 25.1 µM [rising, single point] | –
O=C(Nc1sc2c(c1C(=O)O)CCCCC2)c1ccccc1 | 0.112 µM [falling, full curve, poor fit] | –
C=CCn1c(SCC(N)=O)nc(C)cc1=O | 20.6 µM [rising, single point] | –
Cc1cc(C)n(-c2ccc(C(=O)OCc3nnc(-c4ccccc4)o3)cc2)n1 | 10 µM [rising, partial curve, poor fit] | –
CN(c1ccc(C(=O)NCCc2ccccc2)cc1)S(C)(=O)=O | 23.1 µM [rising, partial curve, poor fit] | –
O=C(c1ccc(Cl)cc1)c1cc([N+](=O)[O-])ccc1N1CCOCC1 | – | 11.2 µM [falling, partial curve]
CCOC(=O)c1cnc(-c2ccccc2)nc1-c1ccccc1 | 20 µM [rising, single point] | –
O=[N+]([O-])c1ccc2sc(SCc3nc4ccccn4c3Br)nc2c1 | 6.51 µM [falling, partial curve, poor fit] | –
COc1ccc(C(=O)OCC(=O)Nc2ncc([N+](=O)[O-])s2)cc1OC | 20.6 µM [falling, single point] | –
CNC(=S)N1CCN(c2ccccc2OC)CC1 | 14.1 µM [rising, single point] | –

Sorted by number of heavy atoms (rising): three of the compounds above
Compound | AC50 [1] | AC50 [2]
C=CCn1c(SCC(N)=O)nc(C)cc1=O | 20.6 µM [rising, single point] | –
CCOC(=O)c1cnc(-c2ccccc2)nc1-c1ccccc1 | 20 µM [rising, single point] | –
COc1ccc(C(=O)OCC(=O)Nc2ncc([N+](=O)[O-])s2)cc1OC | 20.6 µM [falling, single point] | –

The list continues.

Compound | AC50 [1] | AC50 [2]
COc1ccccc1OCC(=O)N/N=C/c1cccc2cccnc12 | 20 µM [falling, single point] | –
O=C(COC(=O)C1=COCCO1)Nc1ncc(Cl)cc1Cl | 29.1 µM [rising, single point] | –
S=C1CCC(c2ccc(Br)cc2)=NN1c1ccccc1 | 0.891 µM [rising, full curve] | –
CCOC(=O)c1c(CSc2ccccc2)n(C)c2cc(Br)c(OC)c(O)c12 | 3.16 µM [rising, full curve, poor fit] | –
CC1(c2nnc(-c3ccc(F)cc3)o2)CC(c2ccc(Cl)cc2)=NO1 (stereo not given) | 3.98 µM [rising, partial curve, poor fit] | –
Cn1cccc1C(=O)NCCc1ccc(Cl)cc1 | 8.91 µM [falling, partial curve, poor fit] | –
O=S(=O)(c1c(F)cccc1F)N1CCN(C(=S)NCc2ccc3c(c2)OCO3)CC1 | 1.78 µM [rising, partial curve, poor fit] | –
Cn1c(=O)c2c(nc(CN3CCN(C(=O)c4ccco4)CC3)n2CCc2ccccc2)n(C)c1=O | 14.1 µM [rising, single point] | –
O=C(NC(=S)Nc1ccccc1N1CCOCC1)c1cccc([N+](=O)[O-])c1 | 10 µM [rising, partial curve, poor fit] | –
O=C1c2ccccc2C(=O)N1CCCc1cn(C[C@H]2CC[C@H](Cn3cc(CCCN4C(=O)c5ccccc5C4=O)nn3)O2)nn1 | 10.3 µM [rising, partial curve, poor fit] | –
Cc1ccc(SC(C)c2nc(-c3ccncc3)no2)cc1 (stereo not given) | 20.6 µM [rising, partial curve, poor fit] | –
COC(=O)CC(=O)CSc1nc2c(cc1C#N)CCCCC2 | 0.461 µM [falling, full curve] | –
O=c1c2ccc(Cl)cc2nc2n1CC/C2=C\c1cccc(O)c1 | 8.91 µM [falling, partial curve, poor fit] | –
O=C(Nc1ccc(F)cc1)c1ccccc1NS(=O)(=O)N1CCCC1 | 4.47 µM [falling, full curve, poor fit] | –
CCC(C)(C)n1nnnc1C(c1cc2ccc(OC)cc2[nH]c1=O)N1CCc2ccccc2C1 (stereo not given) | 29.1 µM [falling, single point] | –
COc1ccc(NC(=S)NCC(c2ccco2)N2CCCC2)cc1 (stereo not given) | 35.5 µM [rising, partial curve, poor fit] | –
COc1ccccc1NC(=S)NN1CCN(C)CC1 | 9.2 µM [falling, partial curve] | –
CCc1cccc(NC(=O)C2CCCN2S(=O)(=O)c2ccc3c(c2)CC(C)N3C(C)=O)c1 (stereo not given) | 2 µM [rising, single point] | –
O=C(NCCc1ccc(F)cc1)c1ccc2nccnc2c1 | 25.9 µM [falling, partial curve] | –
CCCCC(=O)Nc1c(-c2cccc(OC)c2)c(=O)c2ccccc2n1C | 35.5 µM [rising, partial curve, poor fit] | –

Rewritten field by field: three of the compounds above
COc1ccccc1COCC(O)CNCCc1ccc(C(F)(F)F)cc1 (stereo not given)
  AC50 [1]: 35.5 µM [falling, single point]
CCOC(=O)c1c(-c2ccc(C)s2)csc1N
  AC50 [1]: 15.8 µM [falling, single point]
O=[N+]([O-])c1ccc2sc(SCc3nc4ccccn4c3Br)nc2c1
  AC50 [1]: 6.51 µM [falling, partial curve, poor fit]
